In PubChem BioAssay AID652046 (Broad Institute, 2013):
This list was built around the results that the source calls inconclusive (neither active nor inactive); the mix of calls is not that of the screen. Active and inactive are the calls of the source.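 Rule for the calls: active = fitted curve falls past -35% activity change at a concentration no higher than twice the top tested dose; inconclusive = no clear call, values can overlap the other calls; inactive = the rest, including activity in the opposite direction.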

Assay: IL-1beta-stimulated NF-kB eGFP reporter inhibition, dose response, selectivity assay for EBV LMP1 NF-kB inhibitor project, cell-based, dsRed control, flow cytometry, dry powder (AID 652046)
Conditions: IL-1beta-stimulated NF-kB eGFP reporter/dsRed, 16 h; at 19.5 µM (top of the series)
Summary of the method: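 Detection: flow cytometry, scatter-gated live cells / System: HEK293 NF-κB eGFP reporter cells with dsRed / Times: 16 h compound exposure, 37 °C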

SMILES | activity change, negative = inhibition
CN1C(=O)c2cc(NS(C)(=O)=O)ccc2OC[C@@H]2O[C@@H](CC(=O)NCc3ccc(-c4ccccc4)cc3)CC[C@H]21 | inactive: 10.3%
CN(C)c1ccc2c(c1)[C@@H]1C[C@@H](CC(=O)NCc3ccccn3)O[C@@H](CO)[C@@H]1O2 | inconclusive: -9.37%
